Measurements from patent US20130216538A1.
Results are given in words; binding and its absence hold for the method and conditions named. Some results given as binding are weak or reduced against the parent protein; the word gives no strength.

Chains of the proteins cited; added tags and fusions are not shown. Residues count along the entry.
UniProt P07724, residues 25-608: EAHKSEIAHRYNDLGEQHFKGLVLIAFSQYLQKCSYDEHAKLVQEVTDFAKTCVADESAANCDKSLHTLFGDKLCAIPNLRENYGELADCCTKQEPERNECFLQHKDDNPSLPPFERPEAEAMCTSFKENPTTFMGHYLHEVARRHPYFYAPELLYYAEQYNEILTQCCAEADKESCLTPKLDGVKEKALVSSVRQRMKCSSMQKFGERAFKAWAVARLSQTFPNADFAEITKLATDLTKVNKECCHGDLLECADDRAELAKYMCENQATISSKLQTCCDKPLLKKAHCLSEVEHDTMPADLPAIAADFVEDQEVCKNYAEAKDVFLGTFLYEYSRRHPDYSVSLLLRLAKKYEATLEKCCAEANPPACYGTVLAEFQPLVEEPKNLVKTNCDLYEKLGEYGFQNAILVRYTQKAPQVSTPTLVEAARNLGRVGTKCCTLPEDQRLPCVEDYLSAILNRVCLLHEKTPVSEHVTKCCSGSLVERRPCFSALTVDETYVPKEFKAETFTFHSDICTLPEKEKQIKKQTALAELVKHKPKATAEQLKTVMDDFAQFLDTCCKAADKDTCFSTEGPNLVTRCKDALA

B1: anti-serum albumin dAb clones 8, 10 (protein)
VH: EVQLLESGGGLVQPGGSLRLSCAASGFTFWVYQMDWVRQAPGKGLEWVSSISAFGAKTLYADSVKGRFTISRDNSKNTLYLQMNSLRAEDTAVYYCAKLSGKFDYWGQGTLVTVSS
B2: anti-serum albumin dAb clone 36 (protein)
VH: EVQLLESGGGLVQPGGSLRLSCAASGFTFWSYQMTWVRQAPGKGLEWVSSISSFGSSTLYADSVKGRFTISRDNSKNTLYLQMNSLRAEDTAVYYCAKGRDHNYSLFDYWGQGTLVTVSS

Biological target: mouse serum albumin (mouse) (UniProt P07724)
Experiment: ELISA: dAb captured on protein A, biotinylated MSA in solution

Row | Binder | binding
1 | B1 | binds
2 | B2 | binds
